{"sequences": {"note": "By UniProt entry, the sequences of proteins in these tests, tags left out.", "UniProt P28223, whole entry": "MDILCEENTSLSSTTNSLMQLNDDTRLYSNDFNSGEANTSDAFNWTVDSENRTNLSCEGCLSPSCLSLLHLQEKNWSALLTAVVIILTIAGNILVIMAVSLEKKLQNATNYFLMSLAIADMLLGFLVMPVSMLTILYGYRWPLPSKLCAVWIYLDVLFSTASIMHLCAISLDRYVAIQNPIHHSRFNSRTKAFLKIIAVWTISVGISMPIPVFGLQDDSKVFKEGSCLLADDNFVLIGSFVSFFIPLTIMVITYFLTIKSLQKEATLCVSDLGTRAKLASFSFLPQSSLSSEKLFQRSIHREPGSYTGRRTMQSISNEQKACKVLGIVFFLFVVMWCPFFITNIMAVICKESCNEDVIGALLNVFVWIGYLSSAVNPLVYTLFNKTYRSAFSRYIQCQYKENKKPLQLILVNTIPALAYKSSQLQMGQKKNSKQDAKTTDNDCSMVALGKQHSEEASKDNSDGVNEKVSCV"}, "source": "patent US20120053076A1", "about": "“METHODS FOR IDENTIFICATION” (Cambridge Enterprise Limited, priority 2009, published 2012)", "key": {"5HT2a receptor": {"target": "5HT2a receptor (Homo sapiens, UniProt P28223)", "assay": "[3H]-ketanserin binding to 5HT2a receptor membranes", "conditions": "1 nM [3H]-ketanserin"}, "Jurkat T cells": {"tested_on": "Jurkat T cells", "assay": "SDF-1α induced migration of parental Jurkat T cells", "format": "cell-based, human"}, "THP-1 cells": {"tested_on": "THP-1 cells", "assay": "MCP-1 induced THP-1 cell migration, Transwell assay", "format": "cell-based, human", "conditions": "MCP-1 25 ng/ml"}}, "note": "Structures were worked out from names or drawings and are uncertain.", "data": [{"smiles": "CN1CC(C(=O)NC(CC(N)=O)C(=O)O)CC2c3cccc4[nH]cc(c34)CC21", "note": "(stereo not drawn)", "values": [{"measurement": "Apparent Ka, inhibition of [3H]-ketanserin binding", "setting": "5HT2a receptor", "value": "23 ± 5", "unit": "nM"}, {"measurement": "Inhibition of SDF-1α induced migration of Jurkat T cells, in words", "setting": "Jurkat T cells", "value": "neither agent inhibits"}, {"measurement": "Inhibition of MCP-1 induced THP-1 cell migration, in words", "setting": "THP-1 cells", "value": "neither agent inhibits"}]}]}
